The data set concerns perception of sweet taste, in an aqueous solution. As to the kind of experiment: Inherent sweetness assessment using 2AFC method. The data set is classed as in vivo, humans. As to conditions: compound in aqueous solution without sweetener vs 1.5% SE HFCS control; 18-21 panelists. On the procedure: The aqueous sweetener solutions were prepared by adding sucrose equivalent quantities of HFCS (by weight), to water to achieve the desired concentration. The aqueous solutions ranged in pH from 2.5-pH 7. Compounds were first prepared as a 500-fold concentrated stock solution in 100% ethanol. These concentrated stocks were then added to the aqueous sweetener solutions to result in a final ethanol concentration of 0.2%. The control (positive and negative) samples were also normalized to 0.2% ethanol. This level of ethanol was not seen to contribute any perceived sweetness The intrinsic effect of test compounds on the perception of sweet taste, in an aqueous solution, in humans was evaluated using 2AFC methodology. This test was a double-blinded, randomized study where taste panelists (n≧20) evaluate a pair of sweetener solutions at a time—one sample contains aqueous solutions, without sweetener, plus compound (i.e. test) while the other contains aqueous solution containing 1.5% sucrose equivalent (SE), HFCS (i.e. control). […] Panelists were instructed not to eat or drink (except water) for at least 1 hour before the test. During the test, panelists were instructed to sip each sample, swirl it around their mouth and then expectorate. After tasting each sample in the pair, panelists were instructed to record the sample that is “sweeter” in taste. Panelists cleansed their palates by rinsing with water, eating a cracker and waiting for an interval of about 5 minutes. Each pair was tasted twice. All samples were tasted at ambient temperatures. Data were analyzed using binomial probabilities

For `COc1ccc(C2CCc3ccc(O)c(C)c3O2)cc1O` (racemic) [Compound 1, 2-(3-hydroxy-4-methoxyphenyl)-8-methylchroman-7-ol], the Number picking control was 15.
The figure for `COc1ccc(C2CCc3cc(C)c(O)cc3O2)cc1O` (racemic) [Compound 4, 2-(3-hydroxy-4-methoxyphenyl)-6-methylchroman-7-ol] is 16; for `COc1ccc(C2CCc3cc(C)c(O)cc3O2)cc1O` (single isomer, unassigned; (-)) [Compound 5, (−)-2-(3-hydroxy-4-methoxyphenyl)-6-methylchroman-7-ol] it is 13; for `COc1ccc([C@@H]2CCc3ccc(O)c(C)c3O2)cc1O` [Compound 2, (S)-2-(3-hydroxy-4-methoxyphenyl)-8-methylchroman-7-ol] it is 16.

The values above are taken from patent US20170303574A1, “COMPOUNDS, COMPOSITIONS, AND METHODS FOR MODULATING SWEET TASTE” (Chromocell Corporation, priority 2014, published 2017).
